Measurements reported in PubChem BioAssay AID504774 (Drosophila RNAi Screening Center, 2011).
In all, the deposit lists about 23,000 reagents; this is a random part of those that have a named target and a result. 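Values are quantile-normalised luminescence on an arbitrary scale; higher means more cells surviving MMS.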 A plus sign joins genes that one reagent is predicted to hit. Not all columns of the deposit are shown. No sequences are given here.

Purpose: 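Genes required for cells to withstand methyl methanesulphonate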 (primary screen)
Cell system: Drosophila Kc167 cells
Knock-down reagent: long dsRNA against Drosophila genes, about 0.25 µg dsRNA per well
Duration: about 6 days: 3 days knock-down, then 3 days with or without MMS
Treatment: methyl methanesulphonate 0.004% (w/v) for 3 days after knock-down
Measurement: 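Viability in wells given MMS, read as ATP luminescence, normalised by quantiles plate by plate and averaged across replicates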
Reading the numbers: mean viability with MMS: higher = more surviving cells after MMS

no.	Gene	amplicon	mean viability with MMS
1	ced-6	DRSC07591	3.53e6
2	CG14042 + SP555	DRSC02367	3.33e6
3	CG14042 + SP555	DRSC03428	3.62e6
4	CG14424	DRSC18472	3.45e6
5	Pex1	DRSC11358	3.60e6
6	sv	DRSC17221	3.57e6
7	CG7988	DRSC16358	3.52e6
8	CG15721	DRSC19688	3.69e6
9	CG9689	DRSC18440	3.57e6
10	CG34357	DRSC12211	3.54e6
11	CG34357	DRSC12238	3.27e6
12	CG34357	DRSC12334	3.64e6
13	CG34357	DRSC23031	3.62e6
14	CG13113	DRSC02211	3.56e6
15	Elal	DRSC16662	3.48e6
16	Obp83cd	DRSC12267	3.51e6
17	CG7916	DRSC01901	3.55e6
18	sbr	DRSC19770	3.34e6
19	sbr	DRSC20368	2.93e6
20	CG10321	DRSC04061	1.65e6
21	B52	DRSC14121	3.56e6
22	CG12868	DRSC06207	3.74e6
23	bug	DRSC07137	3.62e6
24	Lpin	DRSC07241	3.80e6
25	CG34159	DRSC02885	2.90e6
26	CG34159	DRSC23222	3.73e6
27	Gr93b	DRSC22063	3.64e6
28	CG12547	DRSC07759	3.62e6
29	ACXC	DRSC00846	3.51e6
30	fd3F (retired record)	DRSC17843	2.83e6
31	fd3F (retired record)	DRSC23032	3.60e6
32	Jheh3	DRSC06533	3.56e6
33	sug	DRSC06855	3.27e6
34	AstA	DRSC14634	3.40e6
35	CG30338	DRSC05166	3.46e6
36	Tomosyn	DRSC19365	3.16e6
37	Tomosyn	DRSC19692	3.70e6
38	Tomosyn	DRSC19782	3.43e6
39	Tomosyn	DRSC19842	3.59e6
40	CG6614	DRSC02974	3.75e6
41	fidipidine	DRSC07618	3.62e6
42	NaCP60E	DRSC04307	3.50e6
43	NaCP60E	DRSC21351	3.86e6
44	alphaTub85E	DRSC16899	3.20e6
45	CG6421	DRSC07420	3.52e6

Quoted from the listing for reference:
no.	Gene	amplicon	mean viability with MMS
32	Jheh3	DRSC06533	3.56e6
33	sug	DRSC06855	3.27e6
34	AstA	DRSC14634	3.40e6
35	CG30338	DRSC05166	3.46e6
36	Tomosyn	DRSC19365	3.16e6
37	Tomosyn	DRSC19692	3.70e6
38	Tomosyn	DRSC19782	3.43e6
39	Tomosyn	DRSC19842	3.59e6
40	CG6614	DRSC02974	3.75e6
41	fidipidine	DRSC07618	3.62e6

Next entries follow:
no.	Gene	amplicon	mean viability with MMS
46	CG9399	DRSC16488	3.73e6
47	grsm	DRSC14165	3.54e6
48	grsm	DRSC14843	3.62e6
49	CG42374 + Mettl5	DRSC11085	3.62e6
50	CG12531	DRSC19466	3.42e6
51	CG14454	DRSC11711	3.42e6
52	CG15539	DRSC15075	3.47e6
53	CG1791	DRSC18141	3.60e6
54	Rfk	DRSC15454	3.35e6
55	Acp53C14b	DRSC06569	3.54e6
56	Ugt35D1	DRSC15107	3.27e6
57	CG34276	DRSC15811	3.66e6
58	PIG-N	DRSC06837	3.64e6
59	CG4520	DRSC15590	3.73e6
60	Pebp1	DRSC15354	3.42e6
61	ms(3)76Ba	DRSC10091	3.59e6
62	CG1161	DRSC12180	3.12e6
63	Ask1	DRSC16789	3.48e6
64	Ask1	DRSC21697	3.37e6
65	CG31082 (retired record)	DRSC13775	3.43e6
66	Mctp	DRSC06510	3.44e6
67	Mctp	DRSC22896	3.50e6
68	ich	DRSC12715	3.39e6
69	ich	DRSC14448	3.65e6
